Results: publication PMC11282742
These are yes or no findings as the source states them, for the method shown. Binding seen in cells or lysates may run through a third protein. Some entries that bind do so weakly or less than the wild type.

By UniProt entry, the sequences of proteins in these tests, tags left out. Residues count along the entry.
UniProt P37173, residues 23-567: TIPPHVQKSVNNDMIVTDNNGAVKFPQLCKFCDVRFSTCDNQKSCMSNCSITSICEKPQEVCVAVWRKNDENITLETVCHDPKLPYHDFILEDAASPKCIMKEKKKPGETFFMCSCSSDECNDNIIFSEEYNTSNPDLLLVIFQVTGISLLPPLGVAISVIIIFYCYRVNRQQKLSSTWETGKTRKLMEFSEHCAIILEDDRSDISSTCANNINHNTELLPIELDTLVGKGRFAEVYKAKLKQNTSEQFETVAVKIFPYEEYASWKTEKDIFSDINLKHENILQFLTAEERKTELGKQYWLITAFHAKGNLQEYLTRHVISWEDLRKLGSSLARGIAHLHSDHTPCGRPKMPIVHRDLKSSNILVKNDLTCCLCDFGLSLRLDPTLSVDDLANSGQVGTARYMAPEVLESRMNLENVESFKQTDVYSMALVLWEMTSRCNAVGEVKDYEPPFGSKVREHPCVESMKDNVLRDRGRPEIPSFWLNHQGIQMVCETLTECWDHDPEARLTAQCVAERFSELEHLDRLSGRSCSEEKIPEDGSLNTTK

Biological target: Transforming growth factor beta receptor 2 (TβRII) (human (endogenous in SW480 and HCT116)) (UniProt P37173)
Assay: co-IP; endogenous proteins in SW480 cell lysate; IP with anti-SLC14A1 or anti-TβRII antibody, protein A/G-agarose, washed with PBS, immunoblot

B1: Solute Carrier Family 14 Member 1 (SLC14A1) (protein, UniProt Q13336 1-389)
chain: MEDSPTMVRVDSPTMVRGENQVSPCQGRRCFPKALGYVTGDMKELANQLKDKPVVLQFIDWILRGISQVVFVNNPVSGILILVGLLVQNPWWALTGWLGTVVSTLMALLLSQDRSLIASGLYGYNATLVGVLMAVFSDKGDYFWWLLLPVCAMSMTCPIFSSALNSMLSKWDLPVFTLPFNMALSMYLSATGHYNPFFPAKLVIPITTAPNISWSDLSALELLKSIPVGVGQIYGCDNPWTGGIFLGAILLSSPLMCLHAAIGSLLGIAAGLSLSAPFEDIYFGLWGFNSSLACIAMGGMFMALTWQTHLLALGCALFTAYLGVGMANFMAEVGLPACTWPFCLATLLFLIMTTKNSNIYKMPLSKVTYPEENRIFYLQAKKRMVESPL
For B1, the binding was “binds”.
